# Assay results taken from paper PMC3534379.
# Chains of the proteins cited; added tags and fusions are not shown. Residues count along the entry.
# UniProt Q10589, residues 1-161: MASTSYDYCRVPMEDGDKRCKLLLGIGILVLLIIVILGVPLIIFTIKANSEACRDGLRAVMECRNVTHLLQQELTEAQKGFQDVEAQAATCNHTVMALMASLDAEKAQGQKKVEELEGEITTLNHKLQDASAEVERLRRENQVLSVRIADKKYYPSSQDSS
# UniProt Q1A244: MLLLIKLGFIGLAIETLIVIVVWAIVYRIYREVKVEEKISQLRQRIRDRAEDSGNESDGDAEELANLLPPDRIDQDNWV
# Results are given in words; binding and its absence hold for the method and conditions named. Binding seen in cells or lysates may run through a third protein.
# Molecular target: human tetherin fused to the C-terminal fragment of Kusabira green (KGC) (human) (UniProt Q10589)
# Experiment: split reporter; Kusabira green BiFC: KGN fused to Vpu, KGC fused to human tetherin; 293T cells cotransfected with 2.5 µg of each construct; two days later confocal microscopy and flow cytometry, MFI of Kusabira green normalised to the MFI of tetherin
substance,measurement,value
SIVcpz EK505 Vpu fused to the N-terminal fragment of Kusabira green (KGN) (from UniProt Q1A244 1-79),binding,no binding
